## Library screening results

By UniProt entry, the sequences of proteins in these tests, tags left out.
UniProt E9BF75, entry or part of it: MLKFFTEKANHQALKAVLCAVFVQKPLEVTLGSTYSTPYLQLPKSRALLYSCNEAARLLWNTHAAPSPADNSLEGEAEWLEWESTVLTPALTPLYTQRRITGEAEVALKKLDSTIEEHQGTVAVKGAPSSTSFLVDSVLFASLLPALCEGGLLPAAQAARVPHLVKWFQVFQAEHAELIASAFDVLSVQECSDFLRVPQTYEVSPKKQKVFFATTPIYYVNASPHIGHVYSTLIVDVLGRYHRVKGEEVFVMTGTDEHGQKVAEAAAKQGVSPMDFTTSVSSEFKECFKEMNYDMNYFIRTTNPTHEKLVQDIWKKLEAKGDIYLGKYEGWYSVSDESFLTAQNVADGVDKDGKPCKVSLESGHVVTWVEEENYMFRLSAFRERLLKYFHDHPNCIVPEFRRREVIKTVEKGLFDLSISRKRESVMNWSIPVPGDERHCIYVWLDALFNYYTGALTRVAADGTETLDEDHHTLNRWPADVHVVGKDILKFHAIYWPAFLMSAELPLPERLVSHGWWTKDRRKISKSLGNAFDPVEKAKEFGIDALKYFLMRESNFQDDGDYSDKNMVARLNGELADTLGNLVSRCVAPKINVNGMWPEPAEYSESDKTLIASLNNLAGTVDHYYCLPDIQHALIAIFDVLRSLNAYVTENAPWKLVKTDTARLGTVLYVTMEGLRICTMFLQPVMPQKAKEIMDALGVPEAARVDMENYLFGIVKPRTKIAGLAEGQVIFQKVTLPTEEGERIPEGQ

From ChEMBL document CHEMBL3988442, “University of Dundee, Small-Polar-MMV Screening Library” (2021).

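Primary screen of methionyl-tRNA synthetase; the read-out is not stated. Target: Methionyl-tRNA synthetase (putative), Leishmania donovani (UniProt E9BF75). The test concentration is not given. The values are filed as inhibition. Size under these conditions: about 68,000 compounds, about 24 of them at 50% or above in at least one test.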

Results are percentages, as filed. How 0% and 100% were set is not recorded. Most values in the screen are low, and negative values occur. Compounds were drawn at random from those tested, without regard to their results.

compound,inhibition
CCOc1cc(C(=O)N2CCOCC2)cc2occc12,6.516%
O=S(=O)(CCCN1CCCC1Cn1cncn1)c1ccccc1 (configuration not stated),10.1%
COc1ccc(C(=O)C2CCCN(CCc3ccccc3)C2)c(OC)c1 (configuration not stated),6.422%
Cc1cccc(-n2cc(CN3CCN(C)[C@@H]4CS(=O)(=O)C[C@@H]43)cn2)c1,10.43%
O=C(CCc1ccc(O)cc1)N1CCC(Cc2ccc(CO)cc2)C1 (configuration not stated),18.58%
CC(C)CNS(=O)(=O)c1ccc(C(=O)N(C)CCc2cn[nH]c2)cc1,7.494%
O=C(NCc1nncn1-c1ccccc1)C1CC1,14.42%
Cc1cnn(CC2CN(CCc3ccncc3)CCO2)c1 (configuration not stated),11.33%
Cc1ncc2c(n1)CN(Cc1cn3ccsc3n1)CC2,18.63%
COc1ccc(N2CCC(N(C)C(=O)C(C)SC)CC2)cc1 (configuration not stated),22.73%
CCCn1cnnc1CNC(=O)CC1C(=O)NCCN1CC=C(C)C (configuration not stated),5.455%
Cc1nc(COCc2cnc3n2CCN(C2CCC2)C3C)cs1 (configuration not stated),16.32%
CC(C)c1noc(OCC(=O)N2CCCCC2C)n1 (configuration not stated),13.84%
CN1CCOCC12CCN(Cc1ccoc1)CC2,2.732%
O=C(c1ccc(O)nc1)N1CCC(Nc2cccnn2)CC1,17.13%
Cn1ncc2c1NC(=O)CC2c1cccs1 (configuration not stated),12.66%
Fc1ccc(CN2CCn3cc(Cn4cccn4)nc3C2)cc1,9.51%
O=C(NC1(c2nccs2)CCCC1)c1cc(C2CC2)[nH]n1,15.68%
COc1ccc(C2CN(c3cc(C)ncn3)CCN2C(C)=O)cc1 (configuration not stated),6.977%
COc1ccc2c(c1)OCC(CNC(=O)c1ccc(=O)n(C)c1)C2 (configuration not stated),16.3%
COCC(=O)N1CC[C@]2(O)CCN(Cc3ccsc3)C[C@@H]2C1,2.151%
Cc1c(Br)cc2c(c1C)OCC(N(C)C)C2=O (configuration not stated),2.432%
CNC(=O)CCc1cc(C)nc(C2CCCN2)c1 (configuration not stated),14.73%
COc1cccc(CN(C(=O)NC2CC2)C2CCC(O)CC2)c1 (configuration not stated),18.09%
CN(Cc1cc(C[C@@H]2C[C@H](N)C2(C)C)no1)c1ccccc1,11.54%
COc1ccnc(CN2CCCC(CCc3ccc(F)cc3)C2)c1OC (configuration not stated),12.06%
CC(C)NC(=O)c1ccc2c(c1)C(c1nc[nH]n1)CN2S(C)(=O)=O (configuration not stated),15.73%
O=C(c1ccc(Cl)s1)N1CCC2(COc3ncccc3S(=O)(=O)N2)C1 (configuration not stated),12%
CSc1ccccc1C(=O)N(C)Cc1nncn1C(C)C,2.5%
CC(C)n1cc(CN(C)C[C@@H]2CCCN3CCCC[C@H]23)cn1,13.94%
CN1CCN(C(=O)c2cccc(CN3CCOCC3)c2)CC1,10.14%
CC(C)NC(=O)NCc1ccccc1NS(=O)(=O)c1ccccc1,4.337%
CS(=O)(=O)NCC1CCCN(C(=O)COc2ccc(F)cc2)C1 (configuration not stated),7.362%
CCCC(=O)NC1CCN(c2ccccc2S(=O)(=O)CC)CC1,10.61%
O=C(CCc1cn[nH]c1)N1CCC(C2CCN(c3ncccn3)CC2)C1 (configuration not stated),15.14%
FC(F)(F)c1ccc2nc([C@H]3CCN(C4CCOCC4)C3)[nH]c2c1,4.945%
OCc1csc(N2CCCN(Cc3ccc(F)cc3)CC2)n1,13.17%
CCn1ccnc1CN(C)c1cc(N(C)C)ncn1,18.35%
CN1CCN(CCc2ncnn2-c2ccc3c(c2)OCO3)CC1,10.31%
CC(C)c1cc(NCC2(N(C)C)CCCC2)ncn1,-2.749%
COc1ccc(C(=O)N(C)Cc2cc(C)on2)c(F)c1,-2.089%
CS(=O)(=O)N1CCOCC12CCN(c1nncs1)CC2,12.41%
Cc1noc(NC(=O)c2cccc(Br)c2)n1,18.29%
Cc1cccn2c(=O)cc(CN3CCCCC3Cn3cncn3)nc12 (configuration not stated),6.32%
CCOc1ccc(Cl)c(C(=O)N2CCN(c3ncccn3)CC2)n1,15.67%
Cc1ccc(CNC2(Cc3cc(CO)on3)COC2)o1,9.831%
Cc1nc2c(c(N3CC=CC3)n1)CCN(c1ncccc1C(N)=O)CC2,13.87%
CO[C@@H]1CC[C@@H](NS(=O)(=O)c2cn(C)nc2C)[C@H]1O,23.58%
CCn1ncnc1C(C)NC(=O)C1CCN(Cc2ccco2)CC1 (configuration not stated),2.405%
COc1ccc(Cl)cc1S(=O)(=O)N(C)CC(=O)Nc1ccon1,-2.839%
CCC(NC(=O)C1CCN(S(C)(=O)=O)CC1)c1ccc(OC)c(C)c1 (configuration not stated),4.724%
CNC(=O)CN1CCC(CN(C)Cc2ccccc2N(C)C)CC1,20.87%
CCCN1CCCC2(CCN(c3nccc(OC)n3)C2)C1=O (configuration not stated),10.65%
CC(C)N1CCC(c2nc3ccc(-c4ccnn4C)cn3n2)CC1,-1.37%
CC(C)n1cc(N2CC(C(=O)N3CCN(C)CC3)CC2=O)cn1 (configuration not stated),9.474%
COc1cc(NCc2cccnc2)c(-c2nn[nH]n2)cc1OC,18.41%
CN(Cc1cnn(C)c1)S(=O)(=O)N1CCCC1c1ccco1 (configuration not stated),10.1%
CC(=O)C1(c2ccccc2)CCN(C(=O)C2CNCCO2)CC1 (configuration not stated),8.247%
CNc1ncc(C(=O)N2CC[C@@](O)(C3CCOCC3)[C@H](C)C2)cn1,10.7%
Cc1cccc(C(CNC(=O)NCc2cc[nH]n2)N2CCOCC2)c1 (configuration not stated),13.16%
CC(C)N(C(=O)c1csc(-c2ccoc2)n1)C1CCOCC1,18.56%
CN(C)Cc1cncc2c1CCN(Cc1cnn(C)c1)C2,-0.5376%
CN(C)CC(=O)N1CCc2onc(Cn3cccn3)c2C1,3.268%
Cc1nsc(N2CCCN(c3ccc(C#N)cn3)CC2)n1,15.22%
COc1ccc(CNc2nc(N3CCOCC3)ns2)cc1,16.4%
CC(C)NC(=O)C(C)NC(=O)N1CCN(c2ccc(Cl)cc2)CC1 (configuration not stated),7.645%

8 of the entries, repeated:

{"compound": "COc1ccc(N2CCC(N(C)C(=O)C(C)SC)CC2)cc1", "stereo": "configuration not stated", "inhibition": 22.73}
{"compound": "OCc1csc(N2CCCN(Cc3ccc(F)cc3)CC2)n1", "inhibition": 13.17}
{"compound": "O=C(NCc1nncn1-c1ccccc1)C1CC1", "inhibition": 14.42}
{"compound": "COc1ccc(CNc2nc(N3CCOCC3)ns2)cc1", "inhibition": 16.4}
{"compound": "COc1cccc(CN(C(=O)NC2CC2)C2CCC(O)CC2)c1", "stereo": "configuration not stated", "inhibition": 18.09}
{"compound": "CCCN1CCCC2(CCN(c3nccc(OC)n3)C2)C1=O", "stereo": "configuration not stated", "inhibition": 10.65}
{"compound": "CO[C@@H]1CC[C@@H](NS(=O)(=O)c2cn(C)nc2C)[C@H]1O", "inhibition": 23.58}
{"compound": "Cc1nsc(N2CCCN(c3ccc(C#N)cn3)CC2)n1", "inhibition": 15.22}